In PMC7039973:

B1: Phospholipid phosphatase 6 (protein, UniProt Q8IY26 1-295)
chain: MPSPRRSMEGRPLGVSASSSSSSPGSPAHGGGGGGSRFEFQSLLSSRATAVDPTCARLRASESPVHRRGSFPLAAAGPSQSPAPPLPEEDRMDLNPSFLGIALRSLLAIDLWLSKKLGVCAGESSSWGSVRPLMKLLEISGHGIPWLLGTLYCLCRSDSWAGREVLMNLLFALLLDLLLVALIKGLVRRRRPAHNQMDMFVTLSVDKYSFPSGHATRAALMSRFILNHLVLAIPLRVLVVLWAFVLGLSRVMLGRHNVTDVAFGFFLGYMQYSIVDYCWLSPHNAPVLFLLWSQR
B2: Isoform 4 of Protein MRVI1 (protein, UniProt Q9Y6F6-4 1-903)
chain: MGMDLTCPFGISPACGAQASWSIFGADAAEVPGTRGHSQQEAAMPHIPEDEEPPGEPQAAQSPAGQGPPAAGVSCSPTPTIVLTGDATSPEGETDKNLANRVHSPHKRLSHRHLKVSTASLTSVDPAGHIIDLVNDQLPDISISEEDKKKNLALLEEAKLVSERFLTRRGRKSRSSPGDSPSAVSPNLSPSASPTSSRSNSLTVPTPPGLDVCSGPPSPLPGAPPQKGDEADVSSPHPGEPNVPKGLADRKQNDQRKVSQGRLAPRPPPVEKSKEIAIEQKENFDPLQYPETTPKGLAPVTNSSGKMALNSPQPGPVESELGKQLLKTGWEGSPLPRSPTQDAAGVGPPASQGRGPAGEPMGPEAGSKAELPPTVSRPPLLRGLSWDSGPEEPGPRLQKVLAKLPLAEEEKRFAGKAGGKLAKAPGLKDFQIQVQPVRMQKLTKLREEHILMRNQNLVGLKLPDLSEAAEQEKGLPSELSPAIEEEESKSGLDVMPNISDVLLRKLRVHRSLPGSAPPLTEKEVENVFVQLSLAFRNDSYTLESRINQAERERNLTEENTEKELENFKASITSSASLWHHCEHRETYQKLLEDIAVLHRLAARLSSRAEVVGAVRQEKRMSKATEVMMQYVENLKRTYEKDHAELMEFKKLANQNSSRSCGPSEDGVPRTARSMSLTLGKNMPRRRVSVAVVPKFNALNLPGQTPSSSSIPSLPALSESPNGKGSLPVTSALPALLENGKTNGDPDCEASAPALTLSCLEELSQETKARMEEEAYSKGFQEGLKKTKELQDLKEEEEEQKSESPEEPEEVEETEEEEKGPRSSKLEELVHFLQVMYPKLCQHWQVIWMMAAVMLVLTVVLGLYNSYNSCAEQADGPLGRSTCSAAQRDSWWSSGLQHEQPTEQ
B3: EF-hand domain-containing protein D2 (protein, UniProt Q96C19 1-240)
chain: MATDELATKLSRRLQMEGEGGGETPEQPGLNGAAAAAAGAPDEAAEALGSADCELSAKLLRRADLNQGIGEPQSPSRRVFNPYTEFKEFSRKQIKDMEKMFKQYDAGRDGFIDLMELKLMMEKLGAPQTHLGLKNMIKEVDEDFDSKLSFREFLLIFRKAAAGELQEDSGLCVLARLSEIDVSSEGVKGAKSFFEAKVQAINVSSRFEEEIKAEQEERKKQAEEMKQRKAAFKELQSTFK

The binders below were run against T1, Protein S100-A16, overexpressed from lentivirus (human) (UniProt Q96FQ6) (assay: affinity purification with mass spectrometry; HK-2 cells stably overexpressing S100A16 or scramble-transduced, lysed with RIPA; lysates immunoprecipitated with anti-S100A16 antibody; LC-MS/MS (LTQ-Orbitrap)).
T1 sequence: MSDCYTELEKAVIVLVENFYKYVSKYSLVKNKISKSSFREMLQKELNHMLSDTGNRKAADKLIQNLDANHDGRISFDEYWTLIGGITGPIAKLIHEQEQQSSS

binding, binds:
B1
B2
B3

These are yes or no findings as the source states them, for the method shown. Binding seen in cells or lysates may run through a third protein. A yes stands for co-enrichment or nearness to the bait. Other partners may have been found.
